Reference: PubChem BioAssay AID493014 (National Center for Advancing Translational Sciences (NCATS), 2011)
Some of the results follow. The main result of the screen is listed elsewhere. These columns were measured beside it and carry no call. Most of these compounds were active or inconclusive in the main read-out, so they are no random draw. The note in brackets gives the kind of curve behind each potency; many fits are weak.

Experiment: qHTS Assay to Find Inhibitors of Chronic Active B-Cell Receptor Signaling
Details: ABC-DLBCL IkBa-CBG/CBR reporter, luminescence ratio (green luciferase fused to IkBa over red control in TMD8 lymphoma cells), 4 h
Method in brief: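 Doxycycline induced both beetle luciferases in TMD8 lymphoma cells; IKK-driven degradation limits the IkappaBalpha-fused green signal, while red luminescence normalises for cell number and nonspecific effects. Compounds tested up to 46 uM, 4 hrs.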

[1] = measured here: CBR red luminescence, cell number
[2] = measured here: IkBa-CBG green luminescence

With O=C(Nc1cccc(F)c1)c1cc(S(=O)(=O)N2CCOCC2)ccc1N1CCCC1 the AC50 [1] was 32.6 µM [falling, partial curve, poor fit].
With COc1ccc(CN2CCN(C(=O)c3cccs3)CC2)cc1Br the AC50 [1] was 0.631 µM [rising, full curve, poor fit].
For O=C(CCN1CCOCC1)NNC(=S)NC(=O)c1ccc(Br)cc1, the AC50 [1] was 35.5 µM [falling, single point].
In the case of CCCNc1nc2c(c(=O)n(C)c(=O)n2C)n1Cc1ccc(F)cc1, the AC50 [1] is reported as 20.6 µM [falling, single point].
For O=C(Nc1ccc(N2CCN(C(=O)c3ccco3)CC2)cc1)c1ccccc1Br, the AC50 [1] was 25.1 µM [falling, single point].
With CC(=O)Nc1ccc(S(=O)(=O)N2CCN(CCCOc3ccccc3Cl)CC2)cc1 the AC50 [1] was 10.3 µM [falling, partial curve, poor fit].
With COc1ccc(C(CNC(=O)Cc2ccccc2Cl)N2CCCCC2)cc1 (centres undefined) the AC50 [1] was 1.41 µM [rising, full curve, poor fit].
With O=C(OCc1csc(-c2ccccc2)n1)c1cccs1 the AC50 [1] was 12.6 µM [falling, single point].
With CCn1cc(/C=C(\NC(=O)c2ccccc2F)C(=O)NCCCn2ccnc2)c2ccccc21 the AC50 [1] was 31.6 µM [falling, partial curve, poor fit].
In the case of Cc1cccc(NC(=O)c2c(-c3ccccc3)noc2C)n1, the AC50 [1] is reported as 22.4 µM [rising, partial curve, poor fit].
With CC(C)OC(=O)c1cn(-c2ccccc2)nc1-c1ccco1 the AC50 [1] was 29.1 µM [falling, single point].
For Cc1ccc(OCCC(=O)OCC(=O)Nc2ccccc2)cc1, the AC50 [1] was 31.6 µM [falling, single point].
With Cn1c(=O)c(=O)n(C)c2cc(S(=O)(=O)CCC(=O)NCc3ccccc3)ccc21 the AC50 [1] was 3.55 µM [rising, partial curve, poor fit].
In the case of Cc1[nH]nc(SCC(=O)NCC(C)C)c1[N+](=O)[O-], the AC50 [1] is reported as 17.8 µM [falling, single point].
With CC1(C)Cc2c(c(N3CCOCC3)nc3sc4c(NCCN5CCOCC5)nnnc4c23)CS1 the AC50 [1] was 0.891 µM [rising, full curve, poor fit].
In the case of O=C(Nc1ccc(N2CCN(C(=O)c3cccs3)CC2)c(Cl)c1)c1cccnc1, the AC50 [1] is reported as 15.8 µM [falling, single point].
In the case of COc1cccc(NC(=O)c2oc3ccccc3c2NC(=O)c2ccc3c(c2)OCO3)c1, the AC50 [1] is reported as 2.82 µM [falling, full curve, poor fit].
For Cc1ccnc(NC(=O)C2CC(=O)N(c3ccc4c(c3)OCCO4)C2)c1 (centres undefined), the AC50 [1] was 35.5 µM [falling, single point].
For CCOC(=O)c1cnn(-c2nc(SC)nc3sc4c(c23)CCCC4)c1N, the AC50 [1] was 18.4 µM [rising, single point].
In the case of Cc1cccc(OCCOC(=O)C2CCN(S(=O)(=O)c3ccc(C)c(C)c3)CC2)c1, the AC50 [1] is reported as 7.08 µM [rising, partial curve, poor fit].
In the case of O=C(NCc1ccco1)c1cc(NS(=O)(=O)c2cccc([N+](=O)[O-])c2)ccc1O, the AC50 [1] is reported as 3.55 µM [falling, full curve].
With C=C(C)CSc1nc(N)cc(=O)[nH]1 the AC50 [1] was 35.5 µM [rising, partial curve, poor fit].
For O=C(Oc1c(-c2ccco2)oc2ccccc2c1=O)c1cccnc1, the AC50 [1] was 4.47 µM [falling, partial curve, poor fit].
In the case of O=C(Cn1c(=O)n(CC2CCCO2)c(=O)c2ccccc21)N1CCN(c2ccccc2)CC1 (centres undefined), the AC50 [1] is reported as 16.4 µM [rising, single point].
In the case of COc1cccc(-c2noc(-c3cccnc3)n2)c1, the AC50 [1] is reported as 35.5 µM [falling, single point].
With Cc1cccc(C)c1N(CC(=O)N/N=C/c1cc(Br)c(C)o1)S(C)(=O)=O the AC50 [2] was 5.8 µM [rising, full curve, poor fit].
In the case of Cc1cc(Nc2ccc3c(c2)OCCO3)n2nc(C)nc2n1, the AC50 [1] is reported as 0.58 µM [falling, partial curve, poor fit].
In the case of COc1cccc(-c2nn(-c3ccc(C)cc3)cc2C(=O)N(C)CC(=O)Nc2cccc(F)c2)c1, the AC50 [1] is reported as 29.1 µM [rising, single point].
For O=[N+]([O-])c1ccc(Oc2ccc(S(=O)(=O)N3CCOCC3)cn2)cc1, the AC50 [1] was 6.51 µM [rising, partial curve, poor fit].
With Cn1c(N=NC(=O)c2ccccc2)c(O)c2ccccc21 the AC50 [1] was 13 µM [falling, partial curve].
With CCCCOC(=O)CNc1nnc(SCC(=O)OCC)[nH]c1=O the AC50 [1] was 29.1 µM [rising, single point] and the AC50 [2] was 29.1 µM [falling, single point].
With COc1ccc(N(C)S(=O)(=O)c2cccc(C(=O)Nc3ccc4c(c3)OCCO4)c2)cc1 the AC50 [1] was 35.5 µM [falling, single point].
For Cc1cccc(NC(=O)C2CCN(S(=O)(=O)c3c(C)noc3/C=C/c3ccco3)CC2)n1, the AC50 [1] was 16.4 µM [falling, single point].
With CC(C)c1ccc(C2N3CC4([N+](=O)[O-])CN2CC([N+](=O)[O-])(C3)C4(C)C)cc1 (centres undefined) the AC50 [1] was 18.4 µM [rising, partial curve, poor fit].
For O=C(NC1CCCC1)C(c1ccc(F)cc1)N(Cc1ccc(F)cc1)C(=O)CCl (centres undefined), the AC50 [1] was 6.51 µM [falling, partial curve].
For COc1ccc(C/C(C)=N/NC(=O)c2cccnc2)cc1, the AC50 [1] was 18.4 µM [falling, single point].
In the case of CCN(CC)S(=O)(=O)c1ccc(N/N=C/c2cc(OC)ccc2O)nc1, the AC50 [1] is reported as 11.6 µM [rising, partial curve].
For O=C1c2ccccc2S(=O)(=O)N1Cc1nc2ccccc2s1, the AC50 [1] was 1.78 µM [rising, full curve].
With Cc1ccc(NC(=O)CSc2nnc(-c3cc(C)on3)o2)cc1 the AC50 [1] was 3.16 µM [rising, full curve, poor fit].
For O=C(Nc1nccs1)c1ccc(S(=O)(=O)c2ccccc2)cc1, the AC50 [1] was 0.708 µM [falling, full curve, poor fit].
For N#Cc1cc2sc3nc4ccccc4n3c2cc1C#N, the AC50 [1] was 9.2 µM [falling, partial curve, poor fit].
With NNC(=O)c1cc2cc(OC(F)(F)F)ccc2[nH]1 the AC50 [2] was 35.5 µM [falling, partial curve, poor fit].
With Cc1cccc(NC(=O)C(=O)NCC2CCCN2S(=O)(=O)c2ccccc2)c1 (centres undefined) the AC50 [1] was 29.1 µM [falling, single point].
In the case of CC(C)N1C(=S)N(Cc2ccco2)C(=O)C1CC(=O)Nc1ccccc1 (centres undefined), the AC50 [1] is reported as 35.5 µM [falling, single point].
With COC(=O)c1nn(-c2ccccc2)c(Sc2ccc(C)cc2)c1/C=N/O the AC50 [1] was 7.94 µM [falling, partial curve, poor fit].
In the case of O=C(COC(=O)c1ccccn1)Nc1nc(-c2cccc([N+](=O)[O-])c2)cs1, the AC50 [1] is reported as 12.6 µM [rising, single point].
In the case of COc1cccc(/C=C/C(=O)NCCc2ccc3c(c2)OCCO3)c1, the AC50 [1] is reported as 7.31 µM [falling, partial curve].
In the case of COc1ccccc1[C@H]1C(c2ccc(F)cc2)=NN(c2ccccc2)[C@@H]1CO, the AC50 [1] is reported as 5.8 µM [rising, partial curve, poor fit].
In the case of Cc1ccc(-n2nc3cc(C)c(NC(=S)NC(=O)/C=C/c4ccco4)cc3n2)cc1, the AC50 [1] is reported as 0.231 µM [rising, partial curve, poor fit].
In the case of Cc1[nH]n(-c2ccccc2)c(=O)c1N=O, the AC50 [2] is reported as 7.08 µM [rising, partial curve, poor fit].
In the case of CN(C)S(=O)(=O)c1cc(NC(=O)COC(=O)CC2Sc3ccccc3NC2=O)ccc1Cl (centres undefined), the AC50 [1] is reported as 1.03 µM [rising, full curve, poor fit].
With O=c1ccc(-c2ccc(S(=O)(=O)Nc3cccc([N+](=O)[O-])c3)s2)n[nH]1 the AC50 [1] was 14.1 µM [falling, partial curve].
For COc1ccc(OC(=O)c2c(C)nn(-c3ccccc3)c2C)cc1, the AC50 [1] was 3.55 µM [rising, partial curve].
In the case of Cc1ccc(S(=O)(=O)NCCN=C(CN2CCOCC2)NS(=O)(=O)c2ccc(C)cc2)cc1, the AC50 [1] is reported as 29.1 µM [falling, partial curve, poor fit].
In the case of COc1ccc2nc(Nc3ccccc3OC)sc2c1, the AC50 [1] is reported as 11.2 µM [falling, single point].
With CCC1C(=O)C[C@H]2CCN3C(=O)CCCC1C23 (some centres undefined) the AC50 [1] was 14.6 µM [rising, partial curve, poor fit].
For C=CCN1C(=O)/C(=C/c2ccc(O)c(OC)c2)S/C1=N/c1nccs1, the AC50 [1] was 0.00731 µM [rising, full curve, poor fit].
With C[C@@H]1CC=C[C@H]2[C@H]1C(=O)N(Cc1ccccc1)[C@H]2c1ccc(Br)cc1F the AC50 [1] was 31.6 µM [rising, single point].
With C#CCCc1ccccc1/C=[N+](/C)[O-] the AC50 [1] was 4.11 µM [falling, partial curve, poor fit].
In the case of CCOC(=O)N1CCc2c(sc(NC(=O)CN3CCOCC3)c2C#N)C1, the AC50 [1] is reported as 35.5 µM [falling, single point].
In the case of CCCCCc1cc(=O)c2ccccc2o1, the AC50 [1] is reported as 6.51 µM [rising, full curve, poor fit].
With N/C(=N\OC(=O)CC1CCCCC1)c1ccc([N+](=O)[O-])cc1 the AC50 [1] was 29.1 µM [rising, single point].
For CCc1cccc(NC2c3ccccc3C(=O)N2c2ccc(C)cn2)c1 (centres undefined), the AC50 [1] was 1.64 µM [falling, partial curve, poor fit].
